PubChem BioAssay AID504774 | Drosophila RNAi Screening Center, 2011
In all, the deposit lists about 23,000 reagents; shown is an unselected part of those that have a named target and a result. 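Values are quantile-normalised luminescence on an arbitrary scale; higher means more cells surviving MMS.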 Names joined by + are all predicted targets of the reagent. Further read-outs or replicates are left out here. No sequences are given here.

Aim: 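Knock-downs that shift viability of MMS-exposed cells relative to untreated ones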 (primary screen)
Cells: Drosophila Kc167 cells
Knock-down reagent: long dsRNA against Drosophila genes, about 0.25 µg dsRNA per well
Duration: about 6 days: 3 days knock-down, then 3 days with or without MMS
Challenge: methyl methanesulphonate 0.004% (w/v) for 3 days after knock-down
Measurement: 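Viability in wells given MMS, read as ATP luminescence, normalised by quantiles plate by plate and averaged across replicates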
Reading the numbers: mean viability with MMS: higher = more surviving cells after MMS

The first 4 records, to show the layout:
Lcp65Ag3 + Lcp65Ag2 + Lcp65Ag1 [DRSC11214] | mean viability with MMS = 3.89e6
Lcp65Ag3 + Lcp65Ag2 + Lcp65Ag1 [DRSC11215] | mean viability with MMS = 3.82e6
Eglp4 [DRSC04438] | mean viability with MMS = 3.60e6
Ack-like [DRSC07500] | mean viability with MMS = 3.42e6

Main list, from the start:
Lcp65Ag3 + Lcp65Ag2 + Lcp65Ag1 [DRSC11214] | mean viability with MMS = 3.89e6
Lcp65Ag3 + Lcp65Ag2 + Lcp65Ag1 [DRSC11215] | mean viability with MMS = 3.82e6
Eglp4 [DRSC04438] | mean viability with MMS = 3.60e6
Ack-like [DRSC07500] | mean viability with MMS = 3.42e6
Mkrn1 [DRSC11870] | mean viability with MMS = 3.67e6
CG32132 (retired record) [DRSC22437] | mean viability with MMS = 3.35e6
CG32132 (retired record) [DRSC23128] | mean viability with MMS = 3.52e6
CG17768 + LSm-4 [DRSC02845] | mean viability with MMS = 3.38e6
CG31787 [DRSC01632] | mean viability with MMS = 3.39e6
RpL5 [DRSC03801] | mean viability with MMS = 2.94e6
Npc2d [DRSC14551] | mean viability with MMS = 3.47e6
ATPsynD [DRSC14093] | mean viability with MMS = 3.52e6
Usf [DRSC18129] | mean viability with MMS = 3.55e6
ImpL2 [DRSC08666] | mean viability with MMS = 3.55e6
Crys [DRSC03294] | mean viability with MMS = 3.53e6
CG33191 + Pif1B [DRSC12706] | mean viability with MMS = 3.49e6
CenB1A [DRSC16923] | mean viability with MMS = 3.54e6
CG9130 + CG9133 [DRSC08624] | mean viability with MMS = 3.62e6
CG9130 + CG9133 [DRSC08625] | mean viability with MMS = 3.62e6
CG9130 + CG9133 [DRSC22010] | mean viability with MMS = 3.62e6
CG10737 [DRSC05999] | mean viability with MMS = 3.62e6
CG3650 [DRSC04401] | mean viability with MMS = 3.31e6
CG3597 [DRSC00617] | mean viability with MMS = 3.53e6
CG13540 [DRSC04182] | mean viability with MMS = 3.42e6
Moca-cyp [DRSC15364] | mean viability with MMS = 3.55e6
CG33325 [DRSC12699] | mean viability with MMS = 3.49e6
CG18304 [DRSC02664] | mean viability with MMS = 3.62e6
CG7848 [DRSC07050] | mean viability with MMS = 3.45e6
CG9400 [DRSC20182] | mean viability with MMS = 3.61e6
RpLP0 [DRSC11878] | mean viability with MMS = 3.26e6
RpLP0 [DRSC22110] | mean viability with MMS = 2.70e6
kis [DRSC00521] | mean viability with MMS = 3.58e6
kis [DRSC00625] | mean viability with MMS = 3.42e6
kis [DRSC00823] | mean viability with MMS = 3.37e6
gwl [DRSC16305] | mean viability with MMS = 3.44e6
